PubChem BioAssay AID1159578, Peter MacCallum Cancer Centre | 2015

Test: 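siRNA pools altering how lymphatic endothelial cells close a scratch wound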 (primary screen)
Cells: human lymphatic endothelial cells
Reagents: siRNA pool against human genes, 40 nM
Timing: 48 h after transfection
Measurement: 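Cells stained with dye and imaged after a scratch; covered wound area and nuclei counted, duplicates averaged, migration set against mock wells and turned into a robust z-score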
Direction: migration robust z-score: higher = faster migration into the scratch; migration relative to mock: higher = more scratch area covered than mock; nuclei per well: higher = more cells in the well
Hit rule: 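Pools averaging fewer than 3300 nuclei are never called; remaining pools count as changed when migration robust z lies outside -2 to 2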
Calls: active = migration changed; inactive = no migration change, or too few cells
Here is an unselected part of about 18,000 deposited reagents. About 1,030 of them (5.7%) count as active. 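Inactive calls also include pools with fewer than 3300 nuclei, whose migration was not assessed.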 The raw values are shown without normalisation. Reagent sequences are not shown.

The first 2 entries, ahead of the listing:
gene symbol | migration robust z-score | migration class with cell-count check | migration relative to mock | nuclei per well, duplicate mean | Outcome
THUMPD1 (THUMP domain 1 NAT10 acetyltransferase adaptor) | 0.26 | migration z between -2 and 2; enough cells | 0.96 | 5352 | inactive
ADAMTSL5 (ADAMTS like 5) | 0.65 | migration z between -2 and 2; enough cells | 1.06 | 7631 | inactive

Results, repeating the preview:
gene symbol | migration robust z-score | migration class with cell-count check | migration relative to mock | nuclei per well, duplicate mean | Outcome
THUMPD1 (THUMP domain 1 NAT10 acetyltransferase adaptor) | 0.26 | migration z between -2 and 2; enough cells | 0.96 | 5352 | inactive
ADAMTSL5 (ADAMTS like 5) | 0.65 | migration z between -2 and 2; enough cells | 1.06 | 7631 | inactive
SBSPON (somatomedin B and thrombospondin type 1 domain containing) | 0.36 | migration z between -2 and 2; enough cells | 0.98 | 5581 | inactive
IMPA1 (inositol monophosphatase 1) | -0.39 | migration z between -2 and 2; enough cells | 0.73 | 4894 | inactive
CIMAP1D (CIMAP1 family member D) | 0.33 | migration z between -2 and 2; enough cells | 0.96 | 5646 | inactive
TPPP3 (tubulin polymerization promoting protein family member 3) | -1.32 | migration z between -2 and 2; enough cells | 0.55 | 5868 | inactive
RGPD1 (RANBP2 like and GRIP domain containing 1) | 0.24 | migration z between -2 and 2; enough cells | 0.95 | 5639 | inactive
RHOU (ras homolog family member U) | 0.29 | migration z between -2 and 2; enough cells | 0.86 | 6234 | inactive
RFC1 (replication factor C subunit 1) | 0.42 | migration z between -2 and 2; enough cells | 0.88 | 6182 | inactive
TXNDC16 (thioredoxin domain containing 16) | -0.02 | migration z between -2 and 2; enough cells | 0.8 | 6450 | inactive
CAV3 (caveolin 3) | 0.78 | migration z between -2 and 2; enough cells | 0.96 | 4679 | inactive
NXPE4 (neurexophilin and PC-esterase domain family member 4) | 0.4 | migration z between -2 and 2; enough cells | 0.99 | 7068 | inactive
MPV17L (MPV17 mitochondrial inner membrane protein like) | -0.01 | migration z between -2 and 2; enough cells | 0.88 | 4802 | inactive
ROBO1 (roundabout guidance receptor 1) | -2.31 | migration z below -2; enough cells | 0.36 | 3861 | active
BRCA2 (BRCA2 DNA repair associated) | 0.76 | migration z between -2 and 2; enough cells | 0.95 | 5784 | inactive
LY6H (lymphocyte antigen 6 family member H) | 0.41 | migration z between -2 and 2; enough cells | 0.99 | 6142 | inactive
RBFOX1 (RNA binding fox-1 homolog 1) | -0.8 | migration z between -2 and 2; enough cells | 0.68 | 7174 | inactive
OR5B3 (olfactory receptor family 5 subfamily B member 3) | 0.24 | migration z between -2 and 2; enough cells | 0.94 | 5896 | inactive
MMP8 (matrix metallopeptidase 8) | 0.18 | migration z between -2 and 2; enough cells | 0.84 | 5444 | inactive
CEP131 (centrosomal protein 131) | -0.02 | migration z between -2 and 2; enough cells | 0.88 | 5282 | inactive
MLLT11 (MLLT11 transcription factor 7 cofactor) | -0.8 | migration z between -2 and 2; enough cells | 0.68 | 5672 | inactive
BIRC3 (baculoviral IAP repeat containing 3) | 0.5 | migration z between -2 and 2; enough cells | 0.9 | 6189 | inactive
ELF3 (E74 like ETS transcription factor 3) | 0.36 | migration z between -2 and 2; enough cells | 0.88 | 4188 | inactive
